Experimental data reported in publication PMC4206449.
No constants are given. Whether binding was seen depends on the method and setting. For some of these results: Binding seen in cells or lysates may run through a third protein. Some binding calls cover weakened binding; strength is not graded here. For some of these results: Where a sequence is shown, tags or fusion partners need not be part of it. Values belong to the binder of their own block, whether it stands above or below them.

Chains of the proteins cited; added tags and fusions are not shown.
UniProt Q16637: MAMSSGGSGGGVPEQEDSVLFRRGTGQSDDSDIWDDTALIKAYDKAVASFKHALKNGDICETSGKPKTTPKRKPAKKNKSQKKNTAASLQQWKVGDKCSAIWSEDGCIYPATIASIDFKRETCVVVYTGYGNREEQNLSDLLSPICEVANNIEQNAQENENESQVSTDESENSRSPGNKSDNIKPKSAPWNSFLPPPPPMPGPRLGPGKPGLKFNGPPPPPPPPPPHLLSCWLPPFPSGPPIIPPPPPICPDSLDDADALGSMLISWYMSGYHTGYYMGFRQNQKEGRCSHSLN

Columns and labels:
[1] = target: Smn (endogenous, HEK293T cells) (human (endogenous in HEK293T)) (UniProt Q16637); assay: co-IP; cytosolic and soluble nuclear fractions of HEK293T cells; IP of Smn or hnRNP R, Western blot
[2] = target: T1, recombinant His-tagged hnRNP R full length protein (murine), Q8VHM5; assay: co-IP; 250 or 500 ng rhnRNP R and 250 ng rSMN with GammaBind Plus Sepharose beads and 1 ug antibody against hnRNP R or SMN (or control IgG), 1 h at RT; 50 mM sodium phosphate pH 8.0, 5% glycerol, 50 mM NaCl, 0.1% Tween; Western blot; both purified; conditions: remark: other sources report otherwise
T1 chain: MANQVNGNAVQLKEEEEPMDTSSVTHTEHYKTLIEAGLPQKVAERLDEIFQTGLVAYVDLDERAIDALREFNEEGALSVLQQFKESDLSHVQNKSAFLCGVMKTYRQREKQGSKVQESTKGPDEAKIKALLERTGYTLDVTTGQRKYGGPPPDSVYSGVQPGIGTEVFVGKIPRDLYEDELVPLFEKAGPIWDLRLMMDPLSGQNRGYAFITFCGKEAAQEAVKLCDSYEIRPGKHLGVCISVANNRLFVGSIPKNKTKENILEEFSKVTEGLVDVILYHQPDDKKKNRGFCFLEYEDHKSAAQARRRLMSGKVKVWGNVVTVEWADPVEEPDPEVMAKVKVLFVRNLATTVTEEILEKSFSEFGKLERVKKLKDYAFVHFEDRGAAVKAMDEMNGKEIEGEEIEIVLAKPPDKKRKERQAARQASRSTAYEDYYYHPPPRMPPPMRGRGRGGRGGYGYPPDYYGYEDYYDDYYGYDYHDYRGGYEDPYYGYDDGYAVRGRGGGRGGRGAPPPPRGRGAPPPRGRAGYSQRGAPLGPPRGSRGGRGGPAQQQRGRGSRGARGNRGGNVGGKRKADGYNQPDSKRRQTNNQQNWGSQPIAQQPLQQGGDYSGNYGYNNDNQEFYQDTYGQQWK

[3] = target: T2, hnRNP R (endogenous, mouse) (mouse (endogenous in primary motoneurons and E18 spinal cord)), Q8VHM5; assay: co-IP; cytosolic fraction of E18 mouse spinal cord; IP with anti-hnRNP R (Abcam ab30930) or anti-Smn (BD 610646), 6 h at 4°C, protein G or A agarose; Western blot; conditions: remark: other sources report otherwise
T2 chain: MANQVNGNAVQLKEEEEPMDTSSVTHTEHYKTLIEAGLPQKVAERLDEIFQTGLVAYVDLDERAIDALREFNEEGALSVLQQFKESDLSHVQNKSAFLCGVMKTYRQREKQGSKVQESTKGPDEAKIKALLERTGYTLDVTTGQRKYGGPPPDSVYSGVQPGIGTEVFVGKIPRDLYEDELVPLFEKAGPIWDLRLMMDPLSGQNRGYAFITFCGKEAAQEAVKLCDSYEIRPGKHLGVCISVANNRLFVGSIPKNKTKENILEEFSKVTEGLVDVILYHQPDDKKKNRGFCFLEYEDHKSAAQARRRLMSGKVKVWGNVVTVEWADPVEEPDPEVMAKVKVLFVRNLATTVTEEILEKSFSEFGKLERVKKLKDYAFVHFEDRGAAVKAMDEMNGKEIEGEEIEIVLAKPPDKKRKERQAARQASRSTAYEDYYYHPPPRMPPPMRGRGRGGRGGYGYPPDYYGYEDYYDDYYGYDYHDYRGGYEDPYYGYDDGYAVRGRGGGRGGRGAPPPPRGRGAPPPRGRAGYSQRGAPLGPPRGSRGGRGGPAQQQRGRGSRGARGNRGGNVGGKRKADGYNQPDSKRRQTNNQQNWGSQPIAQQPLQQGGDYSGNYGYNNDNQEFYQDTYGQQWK

[4] = target: T2, hnRNP R (endogenous, mouse) (mouse …); assay: co-IP; cytosolic fraction of primary mouse motoneurons cultured 7DIV on laminin-111; IP with anti-hnRNP R (Abcam ab30930) or anti-Smn (BD 610646), 6 h at 4°C, protein G or A agarose; Western blot; conditions: remark: other sources report otherwise
[5] = target: recombinant His-tagged SMN full length protein (murine), P97801; assay: co-IP; 250 or 500 ng rhnRNP R and 250 ng rSMN with GammaBind Plus Sepharose beads and 1 ug antibody against hnRNP R or SMN (or control IgG), 1 h at RT; 50 mM sodium phosphate pH 8.0, 5% glycerol, 50 mM NaCl, 0.1% Tween; Western blot; both purified; conditions: remark: other sources report otherwise
[6] = target: T3, Smn (endogenous, mouse) (mouse (endogenous in primary motoneurons and E18 spinal cord)), P97801; assay: co-IP; cytosolic fraction of E18 mouse spinal cord; IP with anti-hnRNP R (Abcam ab30930) or anti-Smn (BD 610646), 6 h at 4°C, protein G or A agarose; Western blot; conditions: remark: other sources report otherwise
[7] = target: T3, Smn (endogenous, mouse) (mouse …); assay: co-IP; cytosolic fraction of primary mouse motoneurons cultured 7DIV on laminin-111; IP with anti-hnRNP R (Abcam ab30930) or anti-Smn (BD 610646), 6 h at 4°C, protein G or A agarose; Western blot; conditions: remark: other sources report otherwise

binding [1]: no binding
B1: hnRNP R (endogenous, HEK293T cells) (protein, UniProt O43390 1-633)
chain: MANQVNGNAVQLKEEEEPMDTSSVTHTEHYKTLIEAGLPQKVAERLDEIFQTGLVAYVDLDERAIDALREFNEEGALSVLQQFKESDLSHVQNKSAFLCGVMKTYRQREKQGSKVQESTKGPDEAKIKALLERTGYTLDVTTGQRKYGGPPPDSVYSGVQPGIGTEVFVGKIPRDLYEDELVPLFEKAGPIWDLRLMMDPLSGQNRGYAFITFCGKEAAQEAVKLCDSYEIRPGKHLGVCISVANNRLFVGSIPKNKTKENILEEFSKVTEGLVDVILYHQPDDKKKNRGFCFLEYEDHKSAAQARRRLMSGKVKVWGNVVTVEWADPVEEPDPEVMAKVKVLFVRNLATTVTEEILEKSFSEFGKLERVKKLKDYAFVHFEDRGAAVKAMDEMNGKEIEGEEIEIVLAKPPDKKRKERQAARQASRSTAYEDYYYHPPPRMPPPIRGRGRGGGRGGYGYPPDYYGYEDYYDDYYGYDYHDYRGGYEDPYYGYDDGYAVRGRGGGRGGRGAPPPPRGRGAPPPRGRAGYSQRGAPLGPPRGSRGGRGGPAQQQRGRGSRGSRGNRGGNVGGKRKADGYNQPDSKRRQTNNQQNWGSQPIAQQPLQQGGDYSGNYGYNNDNQEFYQDTYGQQWK

binding [2]: binds
B2: recombinant His-tagged SMN full length protein, P97801 1-288 (protein)
chain: MAMGSGGAGSEQEDTVLFRRGTGQSDDSDIWDDTALIKAYDKAVASFKHALKNGDICETPDKPKGTARRKPAKKNKSQKKNATTPLKQWKVGDKCSAVWSEDGCIYPATITSIDFKRETCVVVYTGYGNREEQNLSDLLSPTCEVANSTEQNTQENESQVSTDDSEHSSRSLRSKAHSKSKAAPWTSFLPPPPPMPGSGLGPGKPGLKFNGPPPPPPLPPPPFLPCWMPPFPSGPPIIPPPPPISPDCLDDTDALGSMLISWYMSGYHTGYYMGFRQNKKEGKCSHTN

binding [3]: binds
binding [4]: binds
B3: Smn (endogenous, mouse), P97801 1-288 (protein)
chain: MAMGSGGAGSEQEDTVLFRRGTGQSDDSDIWDDTALIKAYDKAVASFKHALKNGDICETPDKPKGTARRKPAKKNKSQKKNATTPLKQWKVGDKCSAVWSEDGCIYPATITSIDFKRETCVVVYTGYGNREEQNLSDLLSPTCEVANSTEQNTQENESQVSTDDSEHSSRSLRSKAHSKSKAAPWTSFLPPPPPMPGSGLGPGKPGLKFNGPPPPPPLPPPPFLPCWMPPFPSGPPIIPPPPPISPDCLDDTDALGSMLISWYMSGYHTGYYMGFRQNKKEGKCSHTN

binding [5]: binds
B4: recombinant His-tagged hnRNP R full length protein, Q8VHM5 1-632 (protein)
chain: MANQVNGNAVQLKEEEEPMDTSSVTHTEHYKTLIEAGLPQKVAERLDEIFQTGLVAYVDLDERAIDALREFNEEGALSVLQQFKESDLSHVQNKSAFLCGVMKTYRQREKQGSKVQESTKGPDEAKIKALLERTGYTLDVTTGQRKYGGPPPDSVYSGVQPGIGTEVFVGKIPRDLYEDELVPLFEKAGPIWDLRLMMDPLSGQNRGYAFITFCGKEAAQEAVKLCDSYEIRPGKHLGVCISVANNRLFVGSIPKNKTKENILEEFSKVTEGLVDVILYHQPDDKKKNRGFCFLEYEDHKSAAQARRRLMSGKVKVWGNVVTVEWADPVEEPDPEVMAKVKVLFVRNLATTVTEEILEKSFSEFGKLERVKKLKDYAFVHFEDRGAAVKAMDEMNGKEIEGEEIEIVLAKPPDKKRKERQAARQASRSTAYEDYYYHPPPRMPPPMRGRGRGGRGGYGYPPDYYGYEDYYDDYYGYDYHDYRGGYEDPYYGYDDGYAVRGRGGGRGGRGAPPPPRGRGAPPPRGRAGYSQRGAPLGPPRGSRGGRGGPAQQQRGRGSRGARGNRGGNVGGKRKADGYNQPDSKRRQTNNQQNWGSQPIAQQPLQQGGDYSGNYGYNNDNQEFYQDTYGQQWK

binding [6]: binds
binding [7]: binds
B5: hnRNP R (endogenous, mouse), Q8VHM5 1-632 (protein)
chain: MANQVNGNAVQLKEEEEPMDTSSVTHTEHYKTLIEAGLPQKVAERLDEIFQTGLVAYVDLDERAIDALREFNEEGALSVLQQFKESDLSHVQNKSAFLCGVMKTYRQREKQGSKVQESTKGPDEAKIKALLERTGYTLDVTTGQRKYGGPPPDSVYSGVQPGIGTEVFVGKIPRDLYEDELVPLFEKAGPIWDLRLMMDPLSGQNRGYAFITFCGKEAAQEAVKLCDSYEIRPGKHLGVCISVANNRLFVGSIPKNKTKENILEEFSKVTEGLVDVILYHQPDDKKKNRGFCFLEYEDHKSAAQARRRLMSGKVKVWGNVVTVEWADPVEEPDPEVMAKVKVLFVRNLATTVTEEILEKSFSEFGKLERVKKLKDYAFVHFEDRGAAVKAMDEMNGKEIEGEEIEIVLAKPPDKKRKERQAARQASRSTAYEDYYYHPPPRMPPPMRGRGRGGRGGYGYPPDYYGYEDYYDDYYGYDYHDYRGGYEDPYYGYDDGYAVRGRGGGRGGRGAPPPPRGRGAPPPRGRAGYSQRGAPLGPPRGSRGGRGGPAQQQRGRGSRGARGNRGGNVGGKRKADGYNQPDSKRRQTNNQQNWGSQPIAQQPLQQGGDYSGNYGYNNDNQEFYQDTYGQQWK
